# Reference: the supplement of paper PMC10849652
# Chains of the proteins cited; added tags and fusions are not shown. Lines headed by an entry give the natural chain unless they say otherwise; changes in a name come on top.
# UniProt Q9H1C7: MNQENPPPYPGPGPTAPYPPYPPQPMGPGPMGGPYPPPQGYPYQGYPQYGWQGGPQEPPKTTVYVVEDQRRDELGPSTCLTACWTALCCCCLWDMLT
# UniProt Q96GG9: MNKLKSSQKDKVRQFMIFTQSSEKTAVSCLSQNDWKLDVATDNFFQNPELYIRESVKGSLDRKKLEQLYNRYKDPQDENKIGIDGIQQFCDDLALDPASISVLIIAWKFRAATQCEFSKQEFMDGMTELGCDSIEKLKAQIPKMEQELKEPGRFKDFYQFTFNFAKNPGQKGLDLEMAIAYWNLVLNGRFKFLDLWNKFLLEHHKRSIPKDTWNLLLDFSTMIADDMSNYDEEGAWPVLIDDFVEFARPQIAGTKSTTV
# UniProt Q9Y6A2: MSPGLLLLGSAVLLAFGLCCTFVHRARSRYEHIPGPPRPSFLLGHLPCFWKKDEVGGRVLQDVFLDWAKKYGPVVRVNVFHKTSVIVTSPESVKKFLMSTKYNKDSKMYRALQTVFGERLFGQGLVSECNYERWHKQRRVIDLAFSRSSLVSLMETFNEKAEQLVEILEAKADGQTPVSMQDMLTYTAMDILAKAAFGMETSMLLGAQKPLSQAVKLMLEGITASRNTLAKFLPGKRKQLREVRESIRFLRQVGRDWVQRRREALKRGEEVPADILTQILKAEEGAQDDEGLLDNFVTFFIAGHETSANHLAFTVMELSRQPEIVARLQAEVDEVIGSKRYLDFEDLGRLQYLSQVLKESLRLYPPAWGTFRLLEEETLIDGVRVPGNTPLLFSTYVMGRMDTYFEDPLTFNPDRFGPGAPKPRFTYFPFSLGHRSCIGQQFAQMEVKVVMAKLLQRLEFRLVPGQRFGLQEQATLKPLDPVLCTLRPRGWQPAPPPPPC
# UniProt Q58WW2: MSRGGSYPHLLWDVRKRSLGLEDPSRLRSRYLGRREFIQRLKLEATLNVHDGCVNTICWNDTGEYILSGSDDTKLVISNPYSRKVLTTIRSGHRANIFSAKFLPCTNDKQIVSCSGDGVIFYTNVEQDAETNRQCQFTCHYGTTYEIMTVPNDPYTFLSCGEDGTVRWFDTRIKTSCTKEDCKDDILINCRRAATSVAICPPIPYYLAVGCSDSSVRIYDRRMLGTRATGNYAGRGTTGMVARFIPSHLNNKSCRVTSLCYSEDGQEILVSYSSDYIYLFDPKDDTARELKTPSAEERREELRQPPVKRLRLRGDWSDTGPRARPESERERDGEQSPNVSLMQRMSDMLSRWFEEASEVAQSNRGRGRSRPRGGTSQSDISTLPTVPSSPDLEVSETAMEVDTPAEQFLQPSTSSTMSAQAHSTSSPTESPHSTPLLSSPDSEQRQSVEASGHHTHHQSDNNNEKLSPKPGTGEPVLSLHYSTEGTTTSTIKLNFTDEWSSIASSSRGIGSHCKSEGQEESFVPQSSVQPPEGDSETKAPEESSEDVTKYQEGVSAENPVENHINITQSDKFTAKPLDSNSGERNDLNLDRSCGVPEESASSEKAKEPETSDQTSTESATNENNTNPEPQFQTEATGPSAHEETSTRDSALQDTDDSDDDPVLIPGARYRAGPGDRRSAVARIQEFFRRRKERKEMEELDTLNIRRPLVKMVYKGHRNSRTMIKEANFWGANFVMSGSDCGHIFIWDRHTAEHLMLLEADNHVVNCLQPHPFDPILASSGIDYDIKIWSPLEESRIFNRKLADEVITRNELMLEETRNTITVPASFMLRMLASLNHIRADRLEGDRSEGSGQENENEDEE
# UniProt P50461: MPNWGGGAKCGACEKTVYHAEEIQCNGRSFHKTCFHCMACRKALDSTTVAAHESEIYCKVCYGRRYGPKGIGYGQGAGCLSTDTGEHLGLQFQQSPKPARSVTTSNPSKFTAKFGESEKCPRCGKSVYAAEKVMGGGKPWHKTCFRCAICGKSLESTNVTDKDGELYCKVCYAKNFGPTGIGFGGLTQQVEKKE
# UniProt Q8NA75: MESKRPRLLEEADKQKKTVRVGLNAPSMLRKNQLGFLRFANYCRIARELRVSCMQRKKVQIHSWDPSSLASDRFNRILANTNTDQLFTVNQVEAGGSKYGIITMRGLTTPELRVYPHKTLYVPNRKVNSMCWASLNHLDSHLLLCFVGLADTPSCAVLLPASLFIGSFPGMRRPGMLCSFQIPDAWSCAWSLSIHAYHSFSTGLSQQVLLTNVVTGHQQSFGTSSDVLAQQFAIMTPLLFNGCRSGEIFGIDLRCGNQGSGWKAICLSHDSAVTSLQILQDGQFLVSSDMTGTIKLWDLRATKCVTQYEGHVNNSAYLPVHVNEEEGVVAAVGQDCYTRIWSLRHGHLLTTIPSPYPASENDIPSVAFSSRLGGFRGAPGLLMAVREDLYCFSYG
# UniProt Q9UBR2: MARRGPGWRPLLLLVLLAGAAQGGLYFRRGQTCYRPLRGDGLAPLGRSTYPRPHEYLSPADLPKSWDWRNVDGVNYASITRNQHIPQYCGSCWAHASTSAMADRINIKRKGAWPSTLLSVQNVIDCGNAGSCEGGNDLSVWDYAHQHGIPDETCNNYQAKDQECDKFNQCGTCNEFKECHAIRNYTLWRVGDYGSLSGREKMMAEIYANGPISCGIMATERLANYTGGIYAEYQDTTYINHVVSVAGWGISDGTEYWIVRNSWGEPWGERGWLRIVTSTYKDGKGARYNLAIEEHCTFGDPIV
# UniProt Q14203, whole entry, looked up: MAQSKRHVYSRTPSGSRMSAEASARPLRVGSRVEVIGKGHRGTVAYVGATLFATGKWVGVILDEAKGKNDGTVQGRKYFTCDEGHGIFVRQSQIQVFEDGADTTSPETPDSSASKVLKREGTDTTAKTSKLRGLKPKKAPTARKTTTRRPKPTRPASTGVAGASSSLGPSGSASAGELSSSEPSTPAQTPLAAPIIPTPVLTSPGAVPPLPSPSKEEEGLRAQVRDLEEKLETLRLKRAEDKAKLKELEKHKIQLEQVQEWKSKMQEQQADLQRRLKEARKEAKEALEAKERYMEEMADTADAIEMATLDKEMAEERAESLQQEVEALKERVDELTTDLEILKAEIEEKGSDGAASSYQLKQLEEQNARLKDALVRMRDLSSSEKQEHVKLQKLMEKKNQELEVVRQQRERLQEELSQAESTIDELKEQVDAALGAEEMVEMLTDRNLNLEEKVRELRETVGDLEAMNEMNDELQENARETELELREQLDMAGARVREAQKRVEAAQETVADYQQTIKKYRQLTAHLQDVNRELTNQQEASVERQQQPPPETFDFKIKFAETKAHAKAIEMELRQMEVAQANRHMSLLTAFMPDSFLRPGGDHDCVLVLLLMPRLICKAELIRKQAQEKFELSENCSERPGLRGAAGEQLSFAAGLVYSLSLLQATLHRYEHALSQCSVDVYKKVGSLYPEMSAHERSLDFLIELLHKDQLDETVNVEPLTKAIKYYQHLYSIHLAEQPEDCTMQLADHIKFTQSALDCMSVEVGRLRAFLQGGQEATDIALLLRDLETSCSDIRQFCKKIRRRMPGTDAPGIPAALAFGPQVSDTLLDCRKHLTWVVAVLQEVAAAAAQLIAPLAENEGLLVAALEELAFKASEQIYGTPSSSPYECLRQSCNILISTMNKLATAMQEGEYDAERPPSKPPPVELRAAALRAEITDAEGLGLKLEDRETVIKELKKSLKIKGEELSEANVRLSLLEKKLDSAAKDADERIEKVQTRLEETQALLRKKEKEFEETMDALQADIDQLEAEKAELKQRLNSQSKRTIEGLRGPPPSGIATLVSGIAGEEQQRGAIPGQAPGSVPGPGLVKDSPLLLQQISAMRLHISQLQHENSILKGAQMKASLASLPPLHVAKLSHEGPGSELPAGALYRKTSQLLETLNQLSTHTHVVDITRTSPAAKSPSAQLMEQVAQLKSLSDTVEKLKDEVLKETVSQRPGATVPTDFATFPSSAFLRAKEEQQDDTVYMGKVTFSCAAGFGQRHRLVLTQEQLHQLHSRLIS
# UniProt P13498: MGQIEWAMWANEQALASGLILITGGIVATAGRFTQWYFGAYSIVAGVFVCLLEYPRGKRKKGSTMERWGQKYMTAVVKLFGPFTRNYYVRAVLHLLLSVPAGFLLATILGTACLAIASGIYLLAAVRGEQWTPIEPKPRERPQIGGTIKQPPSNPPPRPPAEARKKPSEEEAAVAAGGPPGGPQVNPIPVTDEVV
# UniProt Q8WUE5: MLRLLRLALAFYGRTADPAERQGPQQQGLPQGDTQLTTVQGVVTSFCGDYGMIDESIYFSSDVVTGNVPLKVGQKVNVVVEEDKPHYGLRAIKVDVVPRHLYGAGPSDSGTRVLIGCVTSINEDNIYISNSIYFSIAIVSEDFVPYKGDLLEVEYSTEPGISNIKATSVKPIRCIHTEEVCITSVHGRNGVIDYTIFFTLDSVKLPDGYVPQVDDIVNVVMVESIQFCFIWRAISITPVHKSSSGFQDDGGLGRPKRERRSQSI
# UniProt Q9NV06: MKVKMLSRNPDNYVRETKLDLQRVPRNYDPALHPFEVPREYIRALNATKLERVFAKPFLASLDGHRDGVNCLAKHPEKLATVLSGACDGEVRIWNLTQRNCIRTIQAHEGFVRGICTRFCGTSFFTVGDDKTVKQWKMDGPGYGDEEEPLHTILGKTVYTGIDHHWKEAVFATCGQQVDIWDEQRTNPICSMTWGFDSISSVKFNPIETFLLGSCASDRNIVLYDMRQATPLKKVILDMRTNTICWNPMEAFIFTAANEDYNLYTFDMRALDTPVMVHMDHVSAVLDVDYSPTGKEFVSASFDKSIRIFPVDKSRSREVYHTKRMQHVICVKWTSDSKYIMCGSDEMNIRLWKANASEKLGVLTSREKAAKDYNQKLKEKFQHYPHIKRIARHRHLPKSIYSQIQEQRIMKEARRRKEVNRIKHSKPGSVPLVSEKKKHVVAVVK
# UniProt P11182, whole entry, looked up: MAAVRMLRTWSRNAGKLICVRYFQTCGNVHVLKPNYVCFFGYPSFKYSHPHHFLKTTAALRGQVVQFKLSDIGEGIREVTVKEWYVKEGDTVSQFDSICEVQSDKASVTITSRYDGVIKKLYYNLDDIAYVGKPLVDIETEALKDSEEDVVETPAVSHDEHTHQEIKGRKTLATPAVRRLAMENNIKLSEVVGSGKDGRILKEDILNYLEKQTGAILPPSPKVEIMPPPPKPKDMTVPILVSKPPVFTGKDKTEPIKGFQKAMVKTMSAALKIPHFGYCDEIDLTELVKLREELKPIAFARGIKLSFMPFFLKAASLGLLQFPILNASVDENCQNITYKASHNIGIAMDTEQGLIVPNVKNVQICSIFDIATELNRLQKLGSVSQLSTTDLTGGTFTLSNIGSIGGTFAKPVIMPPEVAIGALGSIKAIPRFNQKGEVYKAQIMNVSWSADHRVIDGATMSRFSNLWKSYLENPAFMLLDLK
# UniProt P09668: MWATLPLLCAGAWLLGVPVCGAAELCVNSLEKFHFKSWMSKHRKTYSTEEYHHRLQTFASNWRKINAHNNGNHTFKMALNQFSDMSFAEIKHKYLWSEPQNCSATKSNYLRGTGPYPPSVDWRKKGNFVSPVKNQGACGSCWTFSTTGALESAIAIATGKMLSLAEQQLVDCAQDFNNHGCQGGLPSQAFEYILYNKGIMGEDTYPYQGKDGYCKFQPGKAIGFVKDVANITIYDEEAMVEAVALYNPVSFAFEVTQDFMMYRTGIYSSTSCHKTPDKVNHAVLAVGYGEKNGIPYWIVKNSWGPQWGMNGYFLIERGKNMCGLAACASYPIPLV
# UniProt Q16850: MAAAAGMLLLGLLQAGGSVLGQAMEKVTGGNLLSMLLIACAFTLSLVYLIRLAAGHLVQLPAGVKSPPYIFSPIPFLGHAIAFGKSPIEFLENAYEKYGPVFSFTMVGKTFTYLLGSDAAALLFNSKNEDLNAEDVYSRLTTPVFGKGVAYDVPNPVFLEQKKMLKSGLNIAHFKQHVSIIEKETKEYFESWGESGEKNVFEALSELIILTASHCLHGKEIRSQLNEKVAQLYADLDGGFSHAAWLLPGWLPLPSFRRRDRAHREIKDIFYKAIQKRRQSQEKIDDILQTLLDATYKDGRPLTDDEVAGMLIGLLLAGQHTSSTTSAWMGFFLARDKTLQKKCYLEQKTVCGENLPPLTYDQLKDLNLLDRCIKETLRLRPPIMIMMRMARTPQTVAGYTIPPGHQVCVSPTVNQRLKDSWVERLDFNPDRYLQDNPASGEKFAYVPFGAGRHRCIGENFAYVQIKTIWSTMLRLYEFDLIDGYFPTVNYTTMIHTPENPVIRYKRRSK
# UniProt P10619: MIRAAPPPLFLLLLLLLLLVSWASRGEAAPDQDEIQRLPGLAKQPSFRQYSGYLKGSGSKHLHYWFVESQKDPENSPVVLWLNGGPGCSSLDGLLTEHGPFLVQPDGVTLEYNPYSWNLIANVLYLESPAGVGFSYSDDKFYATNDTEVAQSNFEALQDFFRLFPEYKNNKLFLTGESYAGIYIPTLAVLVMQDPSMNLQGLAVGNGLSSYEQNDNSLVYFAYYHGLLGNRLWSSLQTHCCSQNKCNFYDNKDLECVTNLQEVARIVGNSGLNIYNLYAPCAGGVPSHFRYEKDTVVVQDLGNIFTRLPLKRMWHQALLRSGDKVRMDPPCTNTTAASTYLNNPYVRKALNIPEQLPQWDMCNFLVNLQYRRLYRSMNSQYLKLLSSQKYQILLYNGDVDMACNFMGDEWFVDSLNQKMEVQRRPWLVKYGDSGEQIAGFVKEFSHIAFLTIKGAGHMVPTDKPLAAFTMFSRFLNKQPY
# The other results are listed elsewhere or left out.
# Compound: CC1=NC(=CC=C1)C2=C(N=C(N2)C(C)(C)C)C3=CC4=NC=CN=C4C=C3
# Test: log2 fold change, soluble protein after heating vs DMSO (PISA); higher = thermal stabilisation; K562 cells, 10 uM, 30 min; active = over 0.2 and 3.5 SD of the protein, either way, in both replicates (recomputed)
# Outline: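 Thermal stability values are relative to control samples and come from duplicates. They are expressed as log2 fold changes. For measurement, K562 cells (2×10^6 cells/mL) received 10 μM compound for 30 min, and aliquots were heated for 3 min over 48°C-58°C, pooled, and extracted at 4°C in PBS with 0.5% NP-40. Soluble protein, the supernatant after 21,000xg for 90 min, was quantified by TMTpro 16plex LC-MS/MS with equalised channel sums.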
row,Target,log2 fold change
1,DCTN5 (UniProt Q9BTE1),inactive: 0.004
2,CTU1 (UniProt Q7Z7A3),inactive: 0.059
3,CYSTM1 (UniProt Q9H1C7),inactive: -0.009
4,DCUN1D1 (UniProt Q96GG9),inactive: 0.078
5,CYP46A1 (UniProt Q9Y6A2),inactive: -0.193
6,DCAF6 isoform 3 (UniProt Q58WW2),inactive: -0.037
7,CSRP3 (UniProt P50461),inactive: 0.027
8,DCAF4L2 (UniProt Q8NA75),inactive: -0.017
9,CTR9 (UniProt Q6PD62),inactive: -0.101
10,DBNL isoform 3 (UniProt Q9UJU6),inactive: 0.113
11,CTSZ (UniProt Q9UBR2),inactive: 0.002
12,DCTN1 isoform 4 (UniProt Q14203),inactive: -0.039
13,CTSS (UniProt P25774),inactive: -0.068
14,CYBA (UniProt P13498),inactive: -0.02
15,CT55 (UniProt Q8WUE5),inactive: -0.021
16,DCAF13 (UniProt Q9NV06),inactive: -0.067
17,CYB561A3 isoform 2 (UniProt Q8NBI2),inactive: 0.02
18,DBT (UniProt P11182),inactive: -0.015

row,Target,log2 fold change
1,CWF19L2 (UniProt Q2TBE0),inactive: -0.038
2,DBN1 isoform 3 (UniProt Q16643),inactive: -0.002
3,CTSH (UniProt P09668),inactive: 0.093
4,DCP2 (UniProt Q8IU60),inactive: -0.089
5,CTSC (UniProt P53634),inactive: -0.003
6,DAXX (UniProt Q9UER7),inactive: -0.165
7,CTNND1 (UniProt O60716),inactive: 0.014
8,DCAF16 (UniProt Q9NXF7),inactive: -0.015
9,CSTF2 (UniProt P33240),inactive: -0.05
10,CTSB (UniProt P07858),inactive: 0.029
11,DCTPP1 (UniProt Q9H773),inactive: 0.008
12,CWC25 (UniProt Q9NXE8),inactive: 0.012
13,CYP2S1 isoform 2 (UniProt Q96SQ9),inactive: 0.1
14,DAB2 (UniProt P98082),inactive: -0.046
15,CYP51A1 (UniProt Q16850),inactive: -0.133
16,CTSA (UniProt P10619),inactive: 0.003
17,CUX1 isoform 3 (UniProt P39880),inactive: -0.001

# In a second layout: results already given
row | Target | log2 fold change
2 | DBN1 isoform 3 (UniProt Q16643) | inactive: -0.002
7 | CTNND1 (UniProt O60716) | inactive: 0.014
